Measured values from the supplement of paper PMC4604168 (melanoma cell lines).
The other results are listed elsewhere or left out. Repeats are few or missing, and single values can be far off.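 Imaging used 1,536-well plates; nuclei positive for cleaved PARP by antibody were divided by total DNA-stained nuclei to yield the apoptosis fraction. Doses for screening kept most cells viable, and cell lines differ markedly in resting and induced cleaved-PARP levels.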

Each compound was assayed on C32 (assay: cleaved PARP positive nuclei fraction relative to DMSO control; melanoma cells; higher = more apoptosis). Details: library dose: low library concentration; 72 h.
`O=C(Nc1ccccc1)c1cc([N+](=O)[O-])ccc1Cl` + c1cc(-c2cnn3cc(-c4ccc(OCCN5CCCCC5)cc4)cnc23)ccn1 [Dorsomorphin] (first compound 2 µM, partner dose 0.4 µM) was tested, and the “cleaved PARP positive nuclei fraction” value was 106%. In the case of `NCC(=O)Nc1ccc(-n2nc(C(F)(F)F)cc2-c2ccc3c(ccc4ccccc43)c2)cc1` + O=c1cc(-c2cccc3c2Sc2ccccc2S3)oc(N2CCOCC2)c1 [KU55933] (first compound 1 µM, partner dose 1 µM), the “cleaved PARP positive nuclei fraction” value is reported as 34.4%. `COC(=O)c1sccc1S(=O)(=O)Nc1ccc(Nc2ccccc2)cc1OC` + COc1ccc(COc2ccc(Cc3cnc(N)nc3N)cc2OC)cc1 [GW2580] (first compound 1 µM, partner dose 1 µM) was tested, and the “cleaved PARP positive nuclei fraction” value was 210%. `NCC(=O)Nc1ccc(-n2nc(C(F)(F)F)cc2-c2ccc3c(ccc4ccccc43)c2)cc1` + Oc1nc(-c2ccc(C(F)(F)F)cc2)nc2c1CSCC2 [XAV939] (first compound 1 µM, partner dose 2 µM) was tested, and the “cleaved PARP positive nuclei fraction” value was 72.2%. For `NCC(=O)Nc1ccc(-n2nc(C(F)(F)F)cc2-c2ccc3c(ccc4ccccc43)c2)cc1` + N#Cc1c(O)c2c(-c3ccc(-c4ccccc4O)cc3)csc2[nH]c1=O [A769662] (first compound 1 µM, partner dose 2 µM), the “cleaved PARP positive nuclei fraction” value was 168%. For `CCc1ccc(CCOc2ccc(CC3SC(=O)NC3=O)cc2)nc1` (stereo unspecified) [pioglitazone] + COc1ccc2c(c1)CCC1C2CCC2(C)C(NCCCCCCN3C(=O)C=CC3=O)CCC12 [U73122] (first compound 2 µM, partner dose 0.4 µM), the “cleaved PARP positive nuclei fraction” value was 185%. In the case of `COc1cc(N2CCC(N3CCN(C)CC3)CC2)ccc1Nc1ncc(Cl)c(Nc2ccccc2S(=O)(=O)C(C)C)n1` + CCCCCCCCCCCC1=C(O)C(=O)C=C(O)C1=O [Embelin] (first compound 0.08 µM, partner dose 1.2 µM), the “cleaved PARP positive nuclei fraction” value is reported as 76.3%. `N#Cc1c(O)c2c(-c3ccc(-c4ccccc4O)cc3)csc2[nH]c1=O` + COc1ccc(-c2ccc3c(N4CCOCC4)nc(N4C[C@@H](C)O[C@@H](C)C4)nc3n2)cc1CO [KU0063794] (first compound 2 µM, partner dose 0.02 µM) was tested, and the “cleaved PARP positive nuclei fraction” value was 175%. `NCC(=O)Nc1ccc(-n2nc(C(F)(F)F)cc2-c2ccc3c(ccc4ccccc43)c2)cc1` + O=S(=O)(c1ccccc1)N(CC(F)(F)F)c1ccc(C(O)(C(F)(F)F)C(F)(F)F)cc1 [T0901317] (first compound 1 µM, partner dose 1.4 µM) was tested, and the “cleaved PARP positive nuclei fraction” value was 102%. `O=C1NC(=O)/C(=C/c2ccc(-c3ccc(F)cc3O)o2)S1` + CC(C)CCN1c2nc(Nc3cc(F)c(O)c(F)c3)ncc2N(C)C(=O)C1C [BID1870] (first compound 1 µM, partner dose 0.2 µM) was tested, and the “cleaved PARP positive nuclei fraction” value was 8.41%. For `NCC(=O)Nc1ccc(-n2nc(C(F)(F)F)cc2-c2ccc3c(ccc4ccccc43)c2)cc1` + O=C(Nc1ccccc1)c1cc([N+](=O)[O-])ccc1Cl [GW9662] (first compound 1 µM, partner dose 2 µM), the “cleaved PARP positive nuclei fraction” value was 204%. For `O=S(=O)(c1ccccc1)N(CC(F)(F)F)c1ccc(C(O)(C(F)(F)F)C(F)(F)F)cc1` + c1cc(-c2cnn3cc(-c4ccc(OCCN5CCCCC5)cc4)cnc23)ccn1 [Dorsomorphin] (first compound 1.4 µM, partner dose 0.4 µM), the “cleaved PARP positive nuclei fraction” value was 126%. With `COc1ccc(COc2ccc(Cc3cnc(N)nc3N)cc2OC)cc1` + Cn1cc(/C=C2\C(=O)Nc3cccnc32)c2ccccc21 [GW441756] (first compound 1 µM, partner dose 0.4 µM) the “cleaved PARP positive nuclei fraction” value was 74.9%. `Oc1cc(-c2nc(-c3ccccc3)[nH]c2-c2ccncc2)ccc1Cl` + c1cc(-c2cnn3cc(-c4ccc(OCCN5CCCCC5)cc4)cnc23)ccn1 [Dorsomorphin] (first compound 0.2 µM, partner dose 0.4 µM) was tested, and the “cleaved PARP positive nuclei fraction” value was 65%. With `COc1ccc2c(c1)CCC1C2CCC2(C)C(NCCCCCCN3C(=O)C=CC3=O)CCC12` (stereo unspecified) + CC(C)CCN1c2nc(Nc3cc(F)c(O)c(F)c3)ncc2N(C)C(=O)C1C [BID1870] (first compound 0.4 µM, partner dose 0.2 µM) the “cleaved PARP positive nuclei fraction” value was 49%. For `O=C1NC(=O)/C(=C/c2ccc(-c3ccc(F)cc3O)o2)S1` + c1cc(-c2cnn3cc(-c4ccc(OCCN5CCCCC5)cc4)cnc23)ccn1 [Dorsomorphin] (first compound 1 µM, partner dose 0.4 µM), the “cleaved PARP positive nuclei fraction” value was 144%.
